In publication PMC10404282:
Results are given in words; binding and its absence hold for the method and conditions named. In cells and extracts the contact can be indirect. Some entries that bind do so weakly or less than the wild type.

Chains of the proteins cited; added tags and fusions are not shown.
UniProt P04198: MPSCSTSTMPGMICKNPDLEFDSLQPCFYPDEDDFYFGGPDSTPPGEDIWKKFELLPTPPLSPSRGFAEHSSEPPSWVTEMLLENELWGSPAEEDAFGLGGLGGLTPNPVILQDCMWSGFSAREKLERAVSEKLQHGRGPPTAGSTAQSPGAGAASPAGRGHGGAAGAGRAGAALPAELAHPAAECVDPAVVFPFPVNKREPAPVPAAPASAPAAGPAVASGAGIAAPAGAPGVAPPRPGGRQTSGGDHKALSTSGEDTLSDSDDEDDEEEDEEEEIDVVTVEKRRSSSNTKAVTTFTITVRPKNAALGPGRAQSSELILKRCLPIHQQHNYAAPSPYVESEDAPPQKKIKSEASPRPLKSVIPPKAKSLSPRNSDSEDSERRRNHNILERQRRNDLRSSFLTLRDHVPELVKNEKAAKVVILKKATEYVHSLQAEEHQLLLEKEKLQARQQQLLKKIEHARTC
UniProt Q92560: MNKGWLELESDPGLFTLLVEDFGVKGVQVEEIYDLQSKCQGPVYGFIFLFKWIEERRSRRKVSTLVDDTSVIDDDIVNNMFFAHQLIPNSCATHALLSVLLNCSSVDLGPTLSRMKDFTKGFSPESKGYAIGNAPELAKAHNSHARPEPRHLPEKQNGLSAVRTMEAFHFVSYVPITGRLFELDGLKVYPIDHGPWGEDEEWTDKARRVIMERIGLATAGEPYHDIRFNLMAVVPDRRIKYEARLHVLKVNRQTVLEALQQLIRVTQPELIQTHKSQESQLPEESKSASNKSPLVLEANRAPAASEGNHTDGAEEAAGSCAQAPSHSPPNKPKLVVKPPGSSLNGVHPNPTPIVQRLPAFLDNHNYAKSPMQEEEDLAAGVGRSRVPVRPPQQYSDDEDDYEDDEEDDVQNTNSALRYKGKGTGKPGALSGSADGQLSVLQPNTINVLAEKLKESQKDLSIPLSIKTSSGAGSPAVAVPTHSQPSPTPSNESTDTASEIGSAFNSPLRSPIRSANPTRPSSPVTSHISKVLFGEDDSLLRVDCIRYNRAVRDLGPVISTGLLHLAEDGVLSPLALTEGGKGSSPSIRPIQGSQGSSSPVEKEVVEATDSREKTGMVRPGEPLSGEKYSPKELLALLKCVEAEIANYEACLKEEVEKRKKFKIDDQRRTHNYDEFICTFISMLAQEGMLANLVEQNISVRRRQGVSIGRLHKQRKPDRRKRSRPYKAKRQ

What was measured:
HA-MYCN [1] = molecular target: HA-MYCN (UniProt P04198); assay: co-IP; Flag-BAP1 and HA-MYCN co-transfected into 293T cells; 10 uM MG132 for 10 h before harvest; EBC lysis buffer (50 mM Tris pH 8.0, 120 mM NaCl, 0.5% NP-40), antibody-conjugated beads 4-5 h at 4 C, washed with NETN buffer; immunoblot
HA-MYCN [2] = molecular target: HA-MYCN (UniProt P04198); assay: co-IP; endogenous BAP1 with MYCN in 293T cells transfected with the indicated constructs; 10 uM MG132 for 10 h before harvest; EBC lysis buffer, washed with NETN buffer; immunoblot

Substance | binding (HA-MYCN [1]) | binding (HA-MYCN [2])
Flag-BAP1 (BRCA1-associated protein-1) (from UniProt Q92560 1-729) (enzyme) | binds | –
endogenous BAP1 (from UniProt Q92560 1-729) (enzyme) | – | binds
